# This is one part of the list.
# B1: Endo180d1-D4 (Homo sapiens), Q9UBG0 (protein)
# chain: MGPGRPAPAPWPRHLLRCVLLLGCLHLGRPGAPGDAALPEPNVFLIFSHGLQGCLEAQGGQVRVTPACNTSLPAQRWKWVSRNRLFNLGTMQCLGTGWPGTNTTASLGMYECDREALNLRWHCRTLGDQLSLLLGARTSNISKPGTLERGDQTRSGQWRIYGSEEDLCALPYHEVYTIQGNSHGKPCTIPFKYDNQWFHGCTSTGREDGHLWCATTQDYGKDERWGFCPIKSNDCETFWDKDQLTDSCYQFNFQSTLSWREAWASCEQQGADLLSITEIHEQTYINGLLTGYSSTLWIGLNDLDTSGGWQWSDNSPLKYLNWESDQPDNPSEENCGVIRTESSGGWQNRDCSIALPYVCKKKPNATAEPTPPDRWANVKVECEPSWQPFQGHCYRLQAEKRSWQESKKACLRGGGDLVSIHSMAELEFITKQIKQEVEELWIGLNDLKLQMNFEWSDGSLVSFTHWHPFEPNNFRDSLEDCVTIWGPEGRWNDSPCNQSLPSICKKAGQLSQGAAEEDHGCRKGWTWHSPSCYWLGEDQVTYSEARRLCTDHGSQLVTITNRFEQAFVSSLIYNWEGEYFWTALQDLNSTGSFFWLSGDEVMYTHWNRDQPGYSRGGCVALATGSAMGLWEVKNCTSFRARYICRQSLGTPVTPELPGPDPTPSLTGSCPQGWASDTKLRYCYKVFSSERLQDKKSWVQAQGACQELGAQLLSLASYEEEHFVANMLNKIFGESEPEIHEQHWFWIGLNRRDPRGGQSWRWSDGVGFSYHNFDRSRHDDDDIRGCAVLDLASLQWVAMQCDTQLDWICKIPRGTDVREPDDSPQGRREWLRFQEAEYKFFEHHSTWAQAQRICTWFQAELTSVHSQAELDFLSHNLQKFSRAQEQHWWIGLHTSESDGRFRWTDGSIINFISWAPGKPRPVGKDKKCVYMTASREDWGDQRCLTALPYICKRSNVTKETQPPDLPTTALGGCPSDWIQFLNKCFQVQGQEPQSRVKWSEAQFSCEQQEAQLVTITNPLEQAFITASLPNVTFDLWIGLHASQRDFQWVEQEPLMYANWAPGEPSGPSPAPSGNKPTSCAVVLHSPSAHFTGRWDDRSCTEETHGFICQKGTDPSLSPSPAALPPAPGTELSYLNGTFRLLQKPLRWHDALLLCESHNASLAYVPDPYTQAFLTQAARGLRTPLWIGLAGEEGSRRYSWVSEEPLNYVGWQDGEPQQPGGCTYVDVDGAWRTTSCDTKLQGAVCGVSSGPPPPRRISYHGSCPQGLADSAWIPFREHCYSFHMELLLGHKEARQRCQRAGGAVLSILDEMENVFVWEHLQSYEGQSRGAWLGMNFNPKGGTLVWQDNTAVNYSNWGPPGLGPSMLSHNSCYWIQSNSGLWRPGACTNITMGVVCKLPRAEQSSFSPSALPENPAALVVVLMAVLLLLALLTAALILYRRRQSIERGAFEGARYSRSSSSPTEATEKNILVSDMEMNEQQE
# Columns and labels:
# Assay in all cases: glycan array binding signal (z-score within array); higher = stronger binding
# Conditions in all cases: glycan notation: IUPAC condensed, linker removed
# [1] = target: Gal(b1-3)GlcNAc(b1-3)Gal(b1-4)[Fuc(a1-3)]GlcNAc(b1-6)[Gal(b1-3)GlcNAc(b1-3)]Gal(b1-4)Glc
# Method in brief: (§1)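 Columns mapping to the same glycan were averaged after glycan names were converted to IUPAC-condensed notation. The data come from 3228 arrays in the Consortium for Functional Glycomics database, limited to those with an available protein sequence. Binding is reported as a within-array Z-score averaged across arrays of one protein sequence and across linkers.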
# [2] = target: Gal(b1-3)GlcNAc(b1-3)GalNAc
# Method in brief: as §1
# [3] = target: Gal(b1-3)GlcNAc(b1-6)Gal(b1-4)GlcNAc
# Method in brief: as §1
# [4] = target: Gal(b1-3)GlcNAc(b1-6)GalNAc
# Method in brief: as §1
# [5] = target: Gal(b1-3)GlcNAc(b1-6)[Gal(b1-3)]GalNAc
# Method in brief: as §1
# [6] = target: Gal(b1-3)GlcNAc6S
# Method in brief: as §1
# [7] = target: Gal(b1-3)[Fuc(a1-4)]GlcNAc
# Method in brief: as §1
# [8] = target: Gal(b1-3)[Fuc(a1-4)]GlcNAc(b1-2)Man
# Method in brief: as §1
# [9] = target: Gal(b1-3)[Fuc(a1-4)]GlcNAc(b1-2)Man(a1-3)[Gal(b1-3)[Fuc(a1-4)]GlcNAc(b1-2)Man(a1-6)]Man(b1-4)GlcNAc(b1-4)[Fuc(a1-6)]GlcNAc
# Method in brief: as §1
# [10] = target: Gal(b1-3)[Fuc(a1-4)]GlcNAc(b1-3)Gal(b1-3)[Fuc(a1-4)]GlcNAc
# Method in brief: as §1
# [11] = target: Gal(b1-3)[Fuc(a1-4)]GlcNAc(b1-3)Gal(b1-4)GlcNAc
# Method in brief: as §1
# [12] = target: Gal(b1-3)[Fuc(a1-4)]GlcNAc(b1-3)Gal(b1-4)[Fuc(a1-3)]GlcNAc
# Method in brief: as §1
# [13] = target: Gal(b1-3)[Fuc(a1-4)]GlcNAc(b1-6)GalNAc
# Method in brief: as §1
# [14] = target: Gal(b1-3)[GlcNAc(b1-6)]GalNAc
# Method in brief: as §1
# [15] = target: Gal(b1-3)[Neu5Ac(a2-6)]GalNAc
# Method in brief: as §1
# [16] = target: Gal(b1-3)[Neu5Ac(a2-6)]GlcNAc(b1-4)Gal(b1-4)Glc
# Method in brief: as §1
# [17] = target: Gal(b1-3)[Neu5Ac(a2-6)]GlcNAc(b1-6)Gal(b1-4)Glc
# Method in brief: as §1
# [18] = target: Gal(b1-3)[Neu5Ac(b2-6)]GalNAc
# Method in brief: as §1
# [19] = target: Gal(b1-4)Gal
# Method in brief: as §1
# [20] = target: Gal(b1-4)GalNAc(a1-3)[Fuc(a1-2)]Gal(b1-4)GlcNAc
# Method in brief: as §1
# [21] = target: Gal(b1-4)GalNAc(b1-3)[Fuc(a1-2)]Gal(b1-4)GlcNAc
# Method in brief: as §1
# [22] = target: Gal(b1-4)Glc
# Method in brief: as §1
# [23] = target: Gal(b1-4)Glc6S
# Method in brief: as §1
# [24] = target: Gal(b1-4)GlcNAc
# Method in brief: as §1
# [25] = target: Gal(b1-4)GlcNAc(a1-6)Gal(b1-4)GlcNAc
# Method in brief: as §1
# [26] = target: Gal(b1-4)GlcNAc(b1-2)Man
# Method in brief: as §1
# [27] = target: Gal(b1-4)GlcNAc(b1-2)Man(a1-3)Man(b1-4)GlcNAc(b1-4)GlcNAc
# Method in brief: as §1
# [28] = target: Gal(b1-4)GlcNAc(b1-2)Man(a1-3)[Gal(b1-4)GlcNAc(b1-2)Man(a1-6)]Man(b1-4)GlcNAc(b1-4)GlcNAc
# Method in brief: as §1
# [29] = target: Gal(b1-4)GlcNAc(b1-2)Man(a1-3)[Gal(b1-4)GlcNAc(b1-2)Man(a1-6)]Man(b1-4)GlcNAc(b1-4)[Fuc(a1-6)]GlcNAc
# Method in brief: as §1
# [30] = target: Gal(b1-4)GlcNAc(b1-2)Man(a1-3)[Gal(b1-4)GlcNAc(b1-2)Man(a1-6)][Gal(b1-4)GlcNAc(b1-4)]Man(b1-4)GlcNAc(b1-4)[Fuc(a1-6)]GlcNAc
# Method in brief: as §1
# [31] = target: Gal(b1-4)GlcNAc(b1-2)Man(a1-3)[Gal(b1-4)GlcNAc(b1-2)Man(a1-6)][GlcNAc(b1-4)]Man(b1-4)GlcNAc(b1-4)[Fuc(a1-6)]GlcNAc
# Method in brief: as §1
# [32] = target: Gal(b1-4)GlcNAc(b1-2)Man(a1-3)[GlcNAc(b1-2)Man(a1-6)]Man(b1-4)GlcNAc(b1-4)GlcNAc
# Method in brief: as §1
# [33] = target: Gal(b1-4)GlcNAc(b1-2)Man(a1-3)[GlcNAc(b1-4)][Gal(b1-4)GlcNAc(b1-2)Man(a1-6)]Man(b1-4)GlcNAc(b1-4)GlcNAc
# Method in brief: as §1
# [34] = target: Gal(b1-4)GlcNAc(b1-2)Man(a1-3)[Man(a1-6)]Man(b1-4)GlcNAc(b1-4)GlcNAc
# Method in brief: as §1
# [35] = target: Gal(b1-4)GlcNAc(b1-2)Man(a1-6)Man(b1-4)GlcNAc(b1-4)GlcNAc
# Method in brief: as §1
# [36] = target: Gal(b1-4)GlcNAc(b1-2)Man(a1-6)[GlcNAc(b1-2)Man(a1-3)]Man(b1-4)GlcNAc(b1-4)GlcNAc
# Method in brief: as §1
# [37] = target: Gal(b1-4)GlcNAc(b1-2)Man(a1-6)[Man(a1-3)]Man(b1-4)GlcNAc(b1-4)GlcNAc
# Method in brief: as §1
# [38] = target: Gal(b1-4)GlcNAc(b1-2)[Gal(b1-4)GlcNAc(b1-4)]Man(a1-3)[Gal(b1-4)GlcNAc(b1-2)Man(a1-6)]Man(b1-4)GlcNAc(b1-4)GlcNAc
# Method in brief: as §1
# [39] = target: Gal(b1-4)GlcNAc(b1-2)[Gal(b1-4)GlcNAc(b1-4)]Man(a1-3)[Gal(b1-4)GlcNAc(b1-2)[Gal(b1-4)GlcNAc(b1-6)]Man(a1-6)]Man(b1-4)GlcNAc(b1-4)GlcNAc
# Method in brief: as §1
# [40] = target: Gal(b1-4)GlcNAc(b1-2)[Gal(b1-4)GlcNAc(b1-4)]Man(a1-3)[GlcNAc(b1-4)][Gal(b1-4)GlcNAc(b1-2)Man(a1-6)]Man(b1-4)GlcNAc(b1-4)GlcNAc
# Method in brief: as §1
# [41] = target: Gal(b1-4)GlcNAc(b1-2)[Gal(b1-4)GlcNAc(b1-4)]Man(a1-3)[GlcNAc(b1-4)][Gal(b1-4)GlcNAc(b1-2)[Gal(b1-4)GlcNAc(b1-6)]Man(a1-6)]Man(b1-4)GlcNAc(b1-4)GlcNAc
# Method in brief: as §1
# [42] = target: Gal(b1-4)GlcNAc(b1-2)[Gal(b1-4)GlcNAc(b1-6)]Man(a1-6)[Gal(b1-4)GlcNAc(b1-2)Man(a1-3)]Man(b1-4)GlcNAc(b1-4)GlcNAc
# Method in brief: as §1
# [43] = target: Gal(b1-4)GlcNAc(b1-2)[Gal(b1-4)GlcNAc(b1-6)]Man(a1-6)[Gal(b1-4)GlcNAc(b1-2)Man(a1-3)]Man(b1-4)GlcNAc(b1-4)[Fuc(a1-6)]GlcNAc
# Method in brief: as §1
# [44] = target: Gal(b1-4)GlcNAc(b1-2)[Gal(b1-4)GlcNAc(b1-6)]Man(a1-6)[GlcNAc(b1-4)][Gal(b1-4)GlcNAc(b1-2)Man(a1-3)]Man(b1-4)GlcNAc(b1-4)GlcNAc
# Method in brief: as §1
# [45] = target: Gal(b1-4)GlcNAc(b1-2)[Gal(b1-4)GlcNAc(b1-6)]Man(a1-6)[GlcNAc(b1-4)][Gal(b1-4)GlcNAc(b1-2)[Gal(b1-4)GlcNAc(b1-4)]Man(a1-3)]Man(b1-4)GlcNAc(b1-4)[Fuc(a1-6)]GlcNAc
# Method in brief: as §1
binder,measurement,setting,value
B1,glycan array binding signal (z-score),[1],-0.247
same,glycan array binding signal (z-score),[2],-0.378
same,glycan array binding signal (z-score),[3],-0.754
same,glycan array binding signal (z-score),[4],1.49
same,glycan array binding signal (z-score),[5],-0.544
same,glycan array binding signal (z-score),[6],-0.333
same,glycan array binding signal (z-score),[7],-0.273
same,glycan array binding signal (z-score),[8],0.495
same,glycan array binding signal (z-score),[9],-0.269
same,glycan array binding signal (z-score),[10],3.87
same,glycan array binding signal (z-score),[11],-0.188
same,glycan array binding signal (z-score),[12],-0.181
same,glycan array binding signal (z-score),[13],0.211
same,glycan array binding signal (z-score),[14],-0.385
same,glycan array binding signal (z-score),[15],0.102
same,glycan array binding signal (z-score),[16],-0.7
same,glycan array binding signal (z-score),[17],-0.235
same,glycan array binding signal (z-score),[18],0.381
same,glycan array binding signal (z-score),[19],1.45
same,glycan array binding signal (z-score),[20],-0.236
same,glycan array binding signal (z-score),[21],0.107
same,glycan array binding signal (z-score),[22],0.014
same,glycan array binding signal (z-score),[23],0.158
same,glycan array binding signal (z-score),[24],-0.303
same,glycan array binding signal (z-score),[25],-0.98
same,glycan array binding signal (z-score),[26],-0.181
same,glycan array binding signal (z-score),[27],0.985
same,glycan array binding signal (z-score),[28],-0.557
same,glycan array binding signal (z-score),[29],0.329
same,glycan array binding signal (z-score),[30],0.164
same,glycan array binding signal (z-score),[31],-1.03
same,glycan array binding signal (z-score),[32],0.022
same,glycan array binding signal (z-score),[33],-0.243
same,glycan array binding signal (z-score),[34],-0.039
same,glycan array binding signal (z-score),[35],0.463
same,glycan array binding signal (z-score),[36],-0.638
same,glycan array binding signal (z-score),[37],1.42
same,glycan array binding signal (z-score),[38],0.799
same,glycan array binding signal (z-score),[39],-0.428
same,glycan array binding signal (z-score),[40],0.374
same,glycan array binding signal (z-score),[41],-2.45
same,glycan array binding signal (z-score),[42],-1.4
same,glycan array binding signal (z-score),[43],-0.506
same,glycan array binding signal (z-score),[44],-0.127
same,glycan array binding signal (z-score),[45],1.09

# Quoted at random: 2 entries already listed, in no set order.
binder,measurement,setting,value
B1,glycan array binding signal (z-score),[1],-0.247
same,glycan array binding signal (z-score),[3],-0.754

# Source: the supplement of paper PMC8728848
